Measured values published in ChEMBL document CHEMBL3576777, “Hypocoprins A-C: new sesquiterpenoids from the coprophilous fungus Hypocopra rostrata” (J Nat Prod, 2015).

How the values were obtained:
Staphylococcus aureus = experiment: Antibacterial activity against Staphylococcus aureus ATCC 29213 at 20 ug/disk by agar disk diffusion method; assay type: functional, organism-based
Bacillus subtilis = experiment: Antibacterial activity against Bacillus subtilis ATCC 6051 at 20 ug/disk by agar disk diffusion method; assay type: functional, organism-based

Sequence: GENTAMICIN
- inhibition zone (IZ) (Staphylococcus aureus): 13 mm
- inhibition zone (IZ) (Bacillus subtilis): 13 mm
